Reference: PubChem BioAssay AID445 (National Center for Advancing Translational Sciences (NCATS), 2006)
This is one part of the list. Shown are side measurements of this screen, not its main read-out; they come without a call. Most of these compounds were active or inconclusive in the main read-out, so they are no random draw. Potencies come from curve fits of mixed quality, noted in brackets.

Assay: IkB Signaling
Conditions: ABC-DLBCL IkBa-CBG/CBR dual luciferase ratio (green luciferase fused to IkBa over red control in OCI-Ly3 lymphoma cells), 4 h; measured here: control luc red channel unless noted
Summary of the method: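 Luminescence ratio of IκBα-fused green versus native red beetle luciferase in OCI-Ly3 cells, 4 h post-doxycycline with compound; red signal alone, scaled from basal (0%) to zero light (-100%), flagged nonspecific or cytotoxic effects.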

Q: For `Cn1c(SCC(=O)c2ccccc2)nnc1C1CC1`, which AC50 is on record?
A: 31.6 µM [rising, partial curve] [measured here: IkB-luc green channel]

Q: With `CCC(=O)Oc1ccc(C/C(=N\O)c2ccc(O)cc2O)o1` as the compound, how does the AC50 read?
A: 15.8 µM [falling, partial curve]

Q: For `Cc1nn(-c2ccc(F)cc2)c(-n2cccc2)c1C(=O)NCCCN1CCN(c2ccccc2F)CC1`, which AC50 is on record?
A: 15.8 µM [falling, partial curve]

Q: With `CCOc1ccc(Oc2nc(NCC(C)C)nc(NC(C)(C)C)n2)nn1` as the compound, how does the AC50 read?
A: 3.98 µM [falling, partial curve]

Q: For `COc1cccc(NC(=O)CCc2c(C)nc3c4cccnc4nn3c2C)c1`, which AC50 is on record?
A: 39.8 µM [falling, single point]

Q: With `COc1ccccc1OCC(=O)N(Cc1ccc(Cl)cc1)CC1CCCO1` (configuration not stated) as the compound, how does the AC50 read?
A: 25.1 µM [falling, single point]

Q: For `CC(=O)c1ccc(NC(=O)CC2Nc3cccc4cccc(c34)NC2=O)cc1` (configuration not stated), which AC50 is on record?
A: 39.8 µM [falling, single point]

Q: With `CSc1ccc(CCNC(=O)CCCn2nc(C)c3sc4ccccc4c3c2=O)cc1` as the compound, how does the AC50 read?
A: 7.94 µM [falling, partial curve]

Q: For `CCc1cccc(NC(=O)CCS(=O)(=O)c2cc(Br)cc3c2N(C(C)=O)CC3)c1`, which AC50 is on record?
A: 0.1 µM [falling, full curve, poor fit]

Q: For `O=C(CSc1nc2ccccc2nc1Cc1ccccc1)N1CCCCC1`, which AC50 is on record?
A: 31.6 µM [falling, partial curve]

Q: For `O=C(NCc1ccccc1Cl)c1cc2ccccc2o1`, which AC50 is on record?
A: 20 µM [falling, single point]

Q: For `COc1cc(-c2nc3ncccn3c2Nc2ccc(C)cc2C)ccc1O`, which AC50 is on record?
A: 12.6 µM [falling, partial curve]

Q: With `O=C(CSc1nnc(-c2cccnc2)n1Cc1ccco1)Nc1nc(-c2ccc(F)cc2)cs1` as the compound, how does the AC50 read?
A: 20 µM [falling, partial curve]

Q: Which AC50 does the source give for `CCOc1ccccc1NC(=O)N1CCN(Cc2nc3ccc(C)cc3o2)CC1` here?
A: 5.01 µM [falling, full curve, poor fit]

Q: With `COc1cc(C(=O)Nc2ccc(S(=O)(=O)N3CCCCC3C)cc2)cc(OC)c1OC` (configuration not stated) as the compound, how does the AC50 read?
A: 10 µM [falling, partial curve]

Q: For `CCOc1ccccc1NC(=O)Cn1cnc2sc(C)c(S(=O)(=O)N3CCC(C)CC3)c2c1=O`, which AC50 is on record?
A: 5.01 µM [falling, partial curve]

Q: For `CCCCOc1cccc(C(=O)Nc2ccc3oc(-c4cccnc4)nc3c2)c1`, which AC50 is on record?
A: 12.6 µM [falling, partial curve]

Q: Which AC50 does the source give for `COc1ccc(N2CCN(C(=O)CCc3c(C)nc4cc(-c5ccc(Cl)cc5)nn4c3C)CC2)cc1` here?
A: 0.0631 µM [falling, full curve]

Q: For `Cc1nc2ccccc2c(=O)n1-c1ccc(NC(=O)c2ccc([N+](=O)[O-])cc2)cc1`, which AC50 is on record?
A: 3.98 µM [rising, single point]

Q: Which AC50 does the source give for `CCOc1ccc(NCc2cccn2-c2nnc(N3CCC(C(=O)NCCc4ccc(OC)c(OC)c4)CC3)s2)cc1` here?
A: 25.1 µM [falling, single point]

Q: With `CCOC(=O)[C@H](CCc1ccccc1)N[C@@H](C)C(=O)N1[C@H](C(=O)O)C[C@H]2CCC[C@@H]21` as the compound, how does the AC50 read?
A: 2.51 µM [rising, partial curve]

Q: For `Cc1ccccc1CNC(=O)C(=O)NCC(c1ccco1)S(=O)(=O)c1ccccc1` (configuration not stated), which AC50 is on record?
A: 5.01 µM [falling, partial curve, poor fit]

Q: Which AC50 does the source give for `CCCS(=O)(=O)N1CCCC(C(=O)NCCCOC)C1` (configuration not stated) here?
A: 39.8 µM [falling, partial curve, poor fit]

Q: For `Cc1ccc2[nH]c(CSc3nnc(NC(=O)c4ccccc4C)s3)cc(=O)c2c1`, which AC50 is on record?
A: 25.1 µM [falling, partial curve]

Q: For `COc1ccccc1N(CC(=O)Nc1ccc(C)c(Cl)c1)S(=O)(=O)c1ccc(C)cc1`, which AC50 is on record?
A: 10 µM [falling, partial curve]

Q: With `C#CC(C)(CC)NC(=O)c1cc2c(n(-c3ccc(Cl)cc3)c1=O)CC(C)(C)CC2=O` (configuration not stated) as the compound, how does the AC50 read?
A: 31.6 µM [falling, single point]

Q: For `CC(=O)N1CCc2cc(Br)cc(S(=O)(=O)N3CCN(c4cc(C)ccc4C)CC3)c21`, which AC50 is on record?
A: 20 µM [falling, partial curve]

Q: Which AC50 does the source give for `CC(=O)N1c2ccccc2C(=O)C1N1CCN(c2cccc(C(F)(F)F)c2)CC1` (configuration not stated) here?
A: 15.8 µM [falling, partial curve]

Q: For `Cc1ccccc1OCC(=O)N(Cc1ccc(N(C)C)cc1)CC1CCCO1` (configuration not stated), which AC50 is on record?
A: 31.6 µM [falling, single point]

Q: For `Cc1cccc(CNC(=O)CCCN2C(=O)CCn3nc(-c4cn(C)c5ccccc45)cc32)c1`, which AC50 is on record?
A: 25.1 µM [falling, single point]

Q: Which AC50 does the source give for `CCN1CCN(c2c(S(=O)(=O)c3ccccc3)cnc3ccc(Cl)cc23)CC1` here?
A: 0.2 µM [falling, full curve, poor fit]

Q: For `CCCc1cc(C(=O)Nc2cccc(Cl)c2)no1`, which AC50 is on record?
A: 6.31 µM [falling, partial curve]

Q: For `Cn1nc(-c2ccccc2F)c2cc(C(=O)N3CCN(c4ccc(F)cc4)CC3)sc21`, which AC50 is on record?
A: 1.26 µM [falling, partial curve]

Q: Which AC50 does the source give for `Cc1ccc(NC(=O)CSc2ncnc3c2sc2ccccc23)cc1C` here?
A: 2.51 µM [rising, partial curve]

Q: Which AC50 does the source give for `O=C(OCCOc1ccccc1Cl)c1ccc(-n2cnnn2)cc1` here?
A: 39.8 µM [falling, single point]

Q: With `Cc1nn(C(=O)c2cccc(F)c2)c(C)c1S(=O)(=O)N1CCCCCC1` as the compound, how does the AC50 read?
A: 0.316 µM [falling, partial curve]

Q: Which AC50 does the source give for `Cc1ccc(C)c(NC(=O)CSc2nc(=O)n(Cc3ccccn3)c3c2CCC3)c1` here?
A: 39.8 µM [falling, single point]

Q: For `Cc1cccc(N2CCN(S(=O)(=O)c3ccc(F)c(C(=O)Nc4ccc(C(C)C)cc4)c3)CC2)c1C`, which AC50 is on record?
A: 3.16 µM [falling, partial curve]

Q: With `Cc1cc(C)cc(NS(=O)(=O)c2ccc3[nH]cc(C(=O)N4CCCCCC4)c(=O)c3c2)c1` as the compound, how does the AC50 read?
A: 12.6 µM [falling, single point]

Q: With `COc1ccc(OC)c(Nc2ncnc3c2cnn3-c2ccc(C)cc2)c1` as the compound, how does the AC50 read?
A: 20 µM [falling, single point]

Q: With `Cc1c(NC(=O)c2cc(-c3ccc(O)cc3)on2)c(=O)n(-c2ccccc2)n1C` as the compound, how does the AC50 read?
A: 12.6 µM [falling, partial curve]

Q: Which AC50 does the source give for `COc1ccccc1CNc1nc2ccccc2c2nc(-c3cccnc3)nn12` here?
A: 39.8 µM [falling, single point]

Q: With `COCCCNC(=O)c1cnn(-c2ccccc2Cl)c1C1CCN(C(=O)OC(C)(C)C)CC1` as the compound, how does the AC50 read?
A: 39.8 µM [falling, single point]

Q: For `CCc1ccc(CNc2ccc(N3CCN(C(C)=O)CC3)cc2)cc1`, which AC50 is on record?
A: 25.1 µM [falling, partial curve]

Q: With `COc1ccc(CNC(=O)C2CCN(C(=O)c3ccc(-n4ccc5ccccc54)s3)CC2)cc1` as the compound, how does the AC50 read?
A: 12.6 µM [falling, partial curve]

Q: Which AC50 does the source give for `COC(=O)c1ccc(NC(=O)CSc2cn(CC(=O)N3CCCCCC3)c3ccccc23)cc1` here?
A: 20 µM [falling, single point]

Q: For `COc1cccc(NC(=O)C2CCCN(c3nnc(-n4c(C)ccc4C)s3)C2)c1` (configuration not stated), which AC50 is on record?
A: 25.1 µM [falling, single point]

Q: With `COCCCn1c(=N)c(S(=O)(=O)c2ccccc2)cc2c(=O)n3cc(C)ccc3nc21` as the compound, how does the AC50 read?
A: 3.16 µM [rising, single point]

Q: For `Cc1ccccc1OCC(=O)Nc1ccc2nc(SCC(=O)N(C)c3ccccc3)sc2c1`, which AC50 is on record?
A: 7.94 µM [falling, partial curve]

Q: With `CC(C)(C)OC(=O)N1CCC(c2c(C(=O)N3CCN(c4ccc(Cl)cc4)CC3)cnn2-c2ccc(F)cc2F)CC1` as the compound, how does the AC50 read?
A: 25.1 µM [falling, partial curve]

Q: With `CCN1CC=C2C(C#N)=C(N)C(C#N)(C#N)C(c3cc(Cl)ccc3Cl)C2C1` (configuration not stated) as the compound, how does the AC50 read?
A: 39.8 µM [falling, single point]

Q: For `COC(=O)CSc1ncccc1-c1nc2ccccc2[nH]1`, which AC50 is on record?
A: 0.158 µM [falling, full curve]

Q: For `COc1ccc(Cl)cc1NC(=O)c1cc2ccc3ccc(C)[nH]c3c2n1`, which AC50 is on record?
A: 0.631 µM [falling, full curve]

Q: With `Cc1ccc(Cn2c(CNS(=O)(=O)c3ccc(C(C)(C)C)cc3)nc3cccnc32)cc1` as the compound, how does the AC50 read?
A: 31.6 µM [falling, single point]

Q: Which AC50 does the source give for `O=C(c1cc(-c2ccc(Cl)cc2)on1)N(Cc1cccc(F)c1)Cc1ccco1` here?
A: 25.1 µM [falling, single point]

Q: With `COc1ccc(-c2cc(C(=O)Nc3ccc4c(c3)OCO4)no2)cc1OC` as the compound, how does the AC50 read?
A: 0.00631 µM [rising, full curve, poor fit]

Q: For `Cc1ccc(NS(=O)(=O)c2ccc(NC(=O)c3ccc(Br)o3)cc2)c(C)c1`, which AC50 is on record?
A: 3.98 µM [falling, full curve]

Q: Which AC50 does the source give for `O=C(NCCc1ccccc1)c1cnn(-c2ccc(F)cc2)c1-n1cccc1` here?
A: 25.1 µM [falling, single point]

Q: With `CCOC(=O)N1CCc2c(sc3c2c(=O)n(CCc2ccccc2)c(=O)n3Cc2c(F)cccc2Cl)C1` as the compound, how does the AC50 read?
A: 7.94 µM [falling, partial curve]

Q: Which AC50 does the source give for `CCc1ccc(CNC(=O)CN2CCSc3ccccc32)cc1` here?
A: 20 µM [falling, single point]

Q: With `Cc1ccc(NC(=O)CSc2nc3n[nH]c(C)c3c(=N)n2-c2cccc(C)c2)cc1` as the compound, how does the AC50 read?
A: 7.94 µM [falling, full curve, poor fit]

Q: For `CC1=C(C(=O)OCC2CCCO2)C(c2ccccc2OC(C)C)C2=C(CC(c3ccco3)CC2=O)N1` (configuration not stated), which AC50 is on record?
A: 25.1 µM [falling, partial curve]
